Laboratory results: paper PMC8933468
These are yes or no findings as the source states them, for the method shown. In cells and extracts the contact can be indirect. These calls come from enrichment with a bait or labelling near it, and not all partners need be listed. Sequences can lack the tags named with a protein.

Sequences of proteins named here, by UniProt entry; tags and fusion partners are left off.
UniProt P38936: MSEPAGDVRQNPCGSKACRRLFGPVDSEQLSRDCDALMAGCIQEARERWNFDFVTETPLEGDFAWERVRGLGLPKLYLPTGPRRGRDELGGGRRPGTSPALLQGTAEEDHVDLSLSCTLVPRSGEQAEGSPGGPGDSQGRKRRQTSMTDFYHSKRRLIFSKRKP

Target: T1, Flag-CMTM6 (UniProt Q9NX76)
T1 sequence: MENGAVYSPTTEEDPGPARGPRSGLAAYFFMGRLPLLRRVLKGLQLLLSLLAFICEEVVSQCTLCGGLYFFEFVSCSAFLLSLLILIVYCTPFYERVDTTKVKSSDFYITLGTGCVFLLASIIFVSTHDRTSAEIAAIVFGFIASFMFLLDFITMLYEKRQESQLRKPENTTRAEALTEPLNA
Experiment: affinity purification with mass spectrometry; 293T cells transfected with empty vector or Flag-CMTM6; immunoprecipitation with anti-Flag antibody, silver staining, differential bands analysed by LC-MS/MS

endogenous p21 (from UniProt P38936 1-164)
binding: binds
